# According to the supplement of paper PMC11006884:
# Chains of the proteins cited; added tags and fusions are not shown. Lines headed by an entry give the natural chain unless they say otherwise; changes in a name come on top.
# UniProt P34932: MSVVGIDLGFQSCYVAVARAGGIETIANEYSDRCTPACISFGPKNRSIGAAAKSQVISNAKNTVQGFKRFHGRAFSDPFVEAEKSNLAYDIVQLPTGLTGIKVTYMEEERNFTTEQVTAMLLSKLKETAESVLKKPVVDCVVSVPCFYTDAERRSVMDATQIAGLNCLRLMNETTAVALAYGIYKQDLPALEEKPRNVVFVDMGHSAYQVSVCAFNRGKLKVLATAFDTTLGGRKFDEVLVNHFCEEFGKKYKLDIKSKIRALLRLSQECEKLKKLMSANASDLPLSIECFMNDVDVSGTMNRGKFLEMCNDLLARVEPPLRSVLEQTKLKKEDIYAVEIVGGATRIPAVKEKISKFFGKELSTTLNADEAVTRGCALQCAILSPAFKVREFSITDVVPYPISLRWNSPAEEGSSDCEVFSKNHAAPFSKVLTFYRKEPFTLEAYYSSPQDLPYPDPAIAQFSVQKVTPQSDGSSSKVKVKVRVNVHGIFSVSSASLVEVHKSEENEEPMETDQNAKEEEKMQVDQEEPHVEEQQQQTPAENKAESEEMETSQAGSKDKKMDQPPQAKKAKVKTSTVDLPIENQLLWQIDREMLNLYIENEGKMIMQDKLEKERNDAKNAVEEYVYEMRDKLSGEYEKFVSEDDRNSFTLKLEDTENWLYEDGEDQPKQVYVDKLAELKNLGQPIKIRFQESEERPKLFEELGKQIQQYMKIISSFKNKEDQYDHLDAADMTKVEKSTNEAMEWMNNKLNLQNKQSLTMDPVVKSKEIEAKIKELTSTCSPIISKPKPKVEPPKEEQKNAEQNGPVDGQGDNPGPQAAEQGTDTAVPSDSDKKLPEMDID
# UniProt P35232: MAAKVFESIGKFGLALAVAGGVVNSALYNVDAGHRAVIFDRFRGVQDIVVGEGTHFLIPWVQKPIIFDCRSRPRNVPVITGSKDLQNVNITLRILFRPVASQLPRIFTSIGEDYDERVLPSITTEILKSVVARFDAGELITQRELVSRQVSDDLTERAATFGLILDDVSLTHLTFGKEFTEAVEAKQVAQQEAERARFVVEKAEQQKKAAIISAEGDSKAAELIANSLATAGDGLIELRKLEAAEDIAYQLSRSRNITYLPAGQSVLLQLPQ
# UniProt P40222: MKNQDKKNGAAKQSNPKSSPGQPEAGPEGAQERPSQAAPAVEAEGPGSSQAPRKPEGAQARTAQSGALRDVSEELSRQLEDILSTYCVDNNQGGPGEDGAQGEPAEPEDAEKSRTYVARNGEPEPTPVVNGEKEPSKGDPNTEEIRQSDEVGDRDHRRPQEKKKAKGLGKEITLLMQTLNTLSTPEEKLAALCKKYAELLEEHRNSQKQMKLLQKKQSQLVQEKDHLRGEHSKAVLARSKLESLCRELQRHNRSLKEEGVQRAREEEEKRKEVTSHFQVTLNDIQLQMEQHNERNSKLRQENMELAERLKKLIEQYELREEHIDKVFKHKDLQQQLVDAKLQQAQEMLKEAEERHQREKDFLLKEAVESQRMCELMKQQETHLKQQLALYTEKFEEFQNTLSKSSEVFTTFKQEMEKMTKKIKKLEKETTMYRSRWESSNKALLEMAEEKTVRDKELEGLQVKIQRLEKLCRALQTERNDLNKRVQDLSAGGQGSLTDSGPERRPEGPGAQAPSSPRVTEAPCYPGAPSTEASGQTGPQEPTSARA
# UniProt P35998: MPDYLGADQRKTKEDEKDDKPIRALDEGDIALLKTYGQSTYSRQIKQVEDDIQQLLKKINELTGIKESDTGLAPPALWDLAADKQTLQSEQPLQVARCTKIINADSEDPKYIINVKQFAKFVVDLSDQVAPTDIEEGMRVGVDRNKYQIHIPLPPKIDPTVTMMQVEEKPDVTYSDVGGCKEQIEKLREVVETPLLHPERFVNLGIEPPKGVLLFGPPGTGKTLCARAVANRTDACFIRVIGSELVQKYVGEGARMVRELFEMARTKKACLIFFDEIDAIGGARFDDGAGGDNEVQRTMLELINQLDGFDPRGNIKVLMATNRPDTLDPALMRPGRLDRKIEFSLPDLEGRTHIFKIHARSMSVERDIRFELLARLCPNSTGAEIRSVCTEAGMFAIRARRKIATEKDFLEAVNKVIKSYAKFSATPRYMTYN
# UniProt P33527: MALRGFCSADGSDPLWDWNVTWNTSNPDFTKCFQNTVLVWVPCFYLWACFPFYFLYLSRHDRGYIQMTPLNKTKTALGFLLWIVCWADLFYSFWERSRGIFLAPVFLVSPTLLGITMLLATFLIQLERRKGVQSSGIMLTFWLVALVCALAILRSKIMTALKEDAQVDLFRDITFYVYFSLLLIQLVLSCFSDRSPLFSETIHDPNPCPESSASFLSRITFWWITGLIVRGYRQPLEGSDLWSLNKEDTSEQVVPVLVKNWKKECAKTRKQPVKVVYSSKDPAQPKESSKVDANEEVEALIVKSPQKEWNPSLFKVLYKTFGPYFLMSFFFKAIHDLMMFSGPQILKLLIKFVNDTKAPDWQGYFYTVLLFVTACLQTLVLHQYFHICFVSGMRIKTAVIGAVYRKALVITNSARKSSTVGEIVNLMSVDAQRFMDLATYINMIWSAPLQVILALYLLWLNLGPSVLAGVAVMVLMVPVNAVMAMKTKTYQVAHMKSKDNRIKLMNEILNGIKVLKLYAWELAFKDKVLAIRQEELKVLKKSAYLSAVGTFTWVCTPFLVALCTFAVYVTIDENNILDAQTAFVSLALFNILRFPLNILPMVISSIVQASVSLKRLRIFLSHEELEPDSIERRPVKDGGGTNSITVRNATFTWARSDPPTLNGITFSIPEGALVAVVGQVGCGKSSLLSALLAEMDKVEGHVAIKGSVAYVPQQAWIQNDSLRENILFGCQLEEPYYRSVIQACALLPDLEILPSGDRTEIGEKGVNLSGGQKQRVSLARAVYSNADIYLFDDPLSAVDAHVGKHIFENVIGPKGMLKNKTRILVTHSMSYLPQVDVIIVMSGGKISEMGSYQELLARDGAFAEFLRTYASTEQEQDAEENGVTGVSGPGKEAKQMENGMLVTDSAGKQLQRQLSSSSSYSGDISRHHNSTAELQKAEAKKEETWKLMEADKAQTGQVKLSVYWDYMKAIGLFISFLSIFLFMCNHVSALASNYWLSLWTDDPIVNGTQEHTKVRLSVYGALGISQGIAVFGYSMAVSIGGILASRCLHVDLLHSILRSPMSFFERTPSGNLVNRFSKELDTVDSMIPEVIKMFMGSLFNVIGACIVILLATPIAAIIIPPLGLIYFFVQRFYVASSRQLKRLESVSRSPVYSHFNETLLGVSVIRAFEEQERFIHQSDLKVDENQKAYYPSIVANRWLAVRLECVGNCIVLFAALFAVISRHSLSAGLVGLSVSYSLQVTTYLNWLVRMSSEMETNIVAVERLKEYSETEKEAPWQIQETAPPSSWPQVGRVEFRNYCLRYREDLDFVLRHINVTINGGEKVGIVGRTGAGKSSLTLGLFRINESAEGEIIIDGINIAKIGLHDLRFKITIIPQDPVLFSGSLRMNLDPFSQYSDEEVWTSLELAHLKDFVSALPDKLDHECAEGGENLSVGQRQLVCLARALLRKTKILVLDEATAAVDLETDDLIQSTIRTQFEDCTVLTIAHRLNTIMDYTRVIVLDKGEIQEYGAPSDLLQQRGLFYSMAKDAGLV
# UniProt P40926: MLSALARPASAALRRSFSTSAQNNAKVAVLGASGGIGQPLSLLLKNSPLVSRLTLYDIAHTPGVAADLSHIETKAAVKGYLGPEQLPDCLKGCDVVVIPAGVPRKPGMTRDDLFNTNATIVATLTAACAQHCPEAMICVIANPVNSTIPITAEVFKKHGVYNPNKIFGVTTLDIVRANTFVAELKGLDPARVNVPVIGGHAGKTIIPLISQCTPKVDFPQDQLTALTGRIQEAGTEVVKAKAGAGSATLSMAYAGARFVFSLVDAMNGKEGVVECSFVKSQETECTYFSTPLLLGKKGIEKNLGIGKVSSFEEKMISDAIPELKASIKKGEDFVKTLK
# UniProt P42166: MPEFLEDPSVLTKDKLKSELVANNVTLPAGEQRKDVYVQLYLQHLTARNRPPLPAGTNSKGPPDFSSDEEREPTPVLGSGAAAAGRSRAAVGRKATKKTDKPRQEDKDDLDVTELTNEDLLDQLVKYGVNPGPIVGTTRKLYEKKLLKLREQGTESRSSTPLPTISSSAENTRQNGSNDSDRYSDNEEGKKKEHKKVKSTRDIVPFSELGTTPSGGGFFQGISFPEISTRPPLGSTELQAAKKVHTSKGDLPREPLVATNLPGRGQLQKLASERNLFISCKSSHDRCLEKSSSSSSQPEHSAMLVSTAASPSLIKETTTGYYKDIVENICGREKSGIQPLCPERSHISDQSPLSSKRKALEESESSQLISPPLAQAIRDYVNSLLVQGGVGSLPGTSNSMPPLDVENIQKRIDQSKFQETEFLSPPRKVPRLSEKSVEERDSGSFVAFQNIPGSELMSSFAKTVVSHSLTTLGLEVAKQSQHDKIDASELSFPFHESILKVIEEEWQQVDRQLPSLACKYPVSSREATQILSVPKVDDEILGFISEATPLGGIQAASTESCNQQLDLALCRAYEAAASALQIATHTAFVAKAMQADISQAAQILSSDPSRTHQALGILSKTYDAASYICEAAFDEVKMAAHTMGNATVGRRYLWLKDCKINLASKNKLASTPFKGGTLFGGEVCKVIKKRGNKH
# UniProt P41227: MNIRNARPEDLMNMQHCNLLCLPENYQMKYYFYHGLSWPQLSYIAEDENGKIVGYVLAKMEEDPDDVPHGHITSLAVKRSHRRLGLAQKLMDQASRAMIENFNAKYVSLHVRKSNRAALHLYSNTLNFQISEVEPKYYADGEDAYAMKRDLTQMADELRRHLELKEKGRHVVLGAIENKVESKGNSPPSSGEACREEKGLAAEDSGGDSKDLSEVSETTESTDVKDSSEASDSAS
# The entries are a selection whose mix differs from that of the whole data set.
# Compound: COC(=O)C#Cc1ccccc1 [methyl 3-phenylpropiolate]
# Experiment: log2 ratio of iodoacetamide-alkyne labeling of the cysteine site, DMSO over compound (competition); higher = stronger covalent engagement of the cysteine by the compound, active = 1 or more
# Conditions: 500 µM; treatment time 1 h; system: HEK293T cell lysate
# Summary of the method: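 Electrophile (500 µM) or vehicle was added to HEK293T lysate (2 mg/mL) for 1 h at ambient temperature before iodoacetamide alkyne labelling (1 h) and click coupling to sCIP-TMT reagents. After pooling, overnight trypsin digestion at 37 °C, streptavidin enrichment and acid elution, peptides were measured by Orbitrap Eclipse LC-MS/MS with FAIMS and quantified in FragPipe. Each cysteine's log2 competition ratio compares mean control-channel with mean compound-channel reporter intensity, control over compound. Data came from duplicate channels across three replicates, excluding cysteines quantified in only one replicate.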
row,Target,log2 ratio of iodoacetamide-alkyne labeling
1,HSPA4 C380 (UniProt P34932),inactive: -0.192
2,PHB C69 (UniProt P35232),inactive: 0.167
3,POLR2B C919 (UniProt P30876),inactive: -0.0368
4,TXLNA C87 (UniProt P40222),inactive: 0.0789
5,POLR2B C984 (UniProt P30876),inactive: 0.013
6,MTOR C674 (UniProt P42345),inactive: 0.199
7,PSMC2 C377 (UniProt P35998),inactive: 0.299
8,RPL22 C25 (UniProt P35268),inactive: -0.0696
9,RPL3 C253 (UniProt P39023),inactive: 0.582
10,ABCC1 C730 (UniProt P33527),inactive: 0.332
11,MDH2 C128 (UniProt P40926),inactive: -0.335
12,TMPO C341 (UniProt P42166),active: 1.77
13,HSPA4 C38 (UniProt P34932),inactive: 0.635
14,UniProt P41227_C194,inactive: 0.116
15,RPL9 C134 (UniProt P32969),inactive: 0.0357

# Part of the list above, with bars between the fields:
row | Target | log2 ratio of iodoacetamide-alkyne labeling
12 | TMPO C341 (UniProt P42166) | active: 1.77
13 | HSPA4 C38 (UniProt P34932) | inactive: 0.635
